The supplement of paper PMC11006884
What follows is the remainder of the data, with few or none of the targets with a hit. Single values of this set are uncertain. Only a part is listed here, and it is no random draw.

The chains behind the UniProt entries cited, without tags or fusion partners. Where a name states a change or a piece, a line headed by the entry shows the natural chain unless it says otherwise.
UniProt Q86YR5: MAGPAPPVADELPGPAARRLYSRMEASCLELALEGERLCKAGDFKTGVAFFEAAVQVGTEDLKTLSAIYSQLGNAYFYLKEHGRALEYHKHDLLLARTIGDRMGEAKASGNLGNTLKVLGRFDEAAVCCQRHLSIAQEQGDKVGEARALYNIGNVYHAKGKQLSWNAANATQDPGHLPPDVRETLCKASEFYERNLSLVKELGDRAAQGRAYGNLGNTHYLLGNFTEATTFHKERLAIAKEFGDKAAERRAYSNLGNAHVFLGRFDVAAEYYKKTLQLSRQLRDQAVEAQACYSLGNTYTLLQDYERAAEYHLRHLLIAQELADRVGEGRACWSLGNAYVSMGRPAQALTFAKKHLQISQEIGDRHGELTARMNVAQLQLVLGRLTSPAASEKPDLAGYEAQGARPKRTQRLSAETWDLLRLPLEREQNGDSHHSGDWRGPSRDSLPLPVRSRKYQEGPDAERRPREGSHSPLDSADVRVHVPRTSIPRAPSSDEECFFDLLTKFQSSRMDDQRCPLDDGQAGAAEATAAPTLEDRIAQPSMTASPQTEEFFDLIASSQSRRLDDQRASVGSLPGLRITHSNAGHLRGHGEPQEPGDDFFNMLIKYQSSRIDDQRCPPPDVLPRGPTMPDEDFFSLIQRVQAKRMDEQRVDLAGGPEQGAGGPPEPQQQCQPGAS
UniProt Q8IW35: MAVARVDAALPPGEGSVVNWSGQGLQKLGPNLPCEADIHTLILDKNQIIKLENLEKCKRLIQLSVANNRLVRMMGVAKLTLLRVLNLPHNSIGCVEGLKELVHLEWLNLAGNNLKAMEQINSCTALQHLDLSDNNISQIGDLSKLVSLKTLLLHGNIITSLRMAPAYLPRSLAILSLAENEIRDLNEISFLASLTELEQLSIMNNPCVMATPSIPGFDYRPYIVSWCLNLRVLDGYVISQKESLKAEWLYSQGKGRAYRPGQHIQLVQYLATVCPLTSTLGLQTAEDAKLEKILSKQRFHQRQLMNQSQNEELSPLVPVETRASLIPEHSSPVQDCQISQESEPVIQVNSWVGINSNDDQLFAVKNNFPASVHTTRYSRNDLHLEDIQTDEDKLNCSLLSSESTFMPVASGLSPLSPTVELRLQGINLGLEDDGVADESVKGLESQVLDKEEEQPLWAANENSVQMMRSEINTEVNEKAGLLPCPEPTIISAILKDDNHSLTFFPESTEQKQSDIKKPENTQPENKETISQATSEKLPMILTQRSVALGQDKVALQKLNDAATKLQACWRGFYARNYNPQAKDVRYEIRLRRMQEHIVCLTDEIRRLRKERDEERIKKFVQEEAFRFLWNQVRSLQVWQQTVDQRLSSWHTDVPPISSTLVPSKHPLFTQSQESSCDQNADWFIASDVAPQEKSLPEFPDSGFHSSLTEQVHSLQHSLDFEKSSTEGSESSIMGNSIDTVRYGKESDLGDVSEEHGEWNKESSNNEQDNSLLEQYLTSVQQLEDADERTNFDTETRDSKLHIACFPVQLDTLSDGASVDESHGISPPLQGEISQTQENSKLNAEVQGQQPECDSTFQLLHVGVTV
UniProt Q8IYB7: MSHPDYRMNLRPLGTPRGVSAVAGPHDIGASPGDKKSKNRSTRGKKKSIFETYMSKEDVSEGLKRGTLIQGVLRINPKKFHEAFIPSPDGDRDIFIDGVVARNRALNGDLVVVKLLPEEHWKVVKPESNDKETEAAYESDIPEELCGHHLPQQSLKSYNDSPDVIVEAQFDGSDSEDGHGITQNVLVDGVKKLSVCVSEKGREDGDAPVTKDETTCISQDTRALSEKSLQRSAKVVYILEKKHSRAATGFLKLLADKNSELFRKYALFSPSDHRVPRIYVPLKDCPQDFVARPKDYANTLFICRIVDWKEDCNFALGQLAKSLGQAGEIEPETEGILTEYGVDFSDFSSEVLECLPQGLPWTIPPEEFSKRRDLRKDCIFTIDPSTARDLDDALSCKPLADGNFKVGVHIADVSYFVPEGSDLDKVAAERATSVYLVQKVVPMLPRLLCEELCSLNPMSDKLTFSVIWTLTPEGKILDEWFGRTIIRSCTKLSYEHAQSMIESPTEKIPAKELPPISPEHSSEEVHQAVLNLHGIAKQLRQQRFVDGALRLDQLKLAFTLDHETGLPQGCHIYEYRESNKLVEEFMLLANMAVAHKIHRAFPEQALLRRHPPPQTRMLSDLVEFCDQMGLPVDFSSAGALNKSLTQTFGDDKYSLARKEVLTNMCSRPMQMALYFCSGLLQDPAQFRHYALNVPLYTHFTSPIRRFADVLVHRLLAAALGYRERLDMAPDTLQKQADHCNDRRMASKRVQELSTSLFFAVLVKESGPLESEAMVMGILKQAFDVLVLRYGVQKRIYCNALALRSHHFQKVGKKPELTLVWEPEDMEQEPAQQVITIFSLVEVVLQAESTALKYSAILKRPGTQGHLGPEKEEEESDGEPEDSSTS
UniProt Q86YV9: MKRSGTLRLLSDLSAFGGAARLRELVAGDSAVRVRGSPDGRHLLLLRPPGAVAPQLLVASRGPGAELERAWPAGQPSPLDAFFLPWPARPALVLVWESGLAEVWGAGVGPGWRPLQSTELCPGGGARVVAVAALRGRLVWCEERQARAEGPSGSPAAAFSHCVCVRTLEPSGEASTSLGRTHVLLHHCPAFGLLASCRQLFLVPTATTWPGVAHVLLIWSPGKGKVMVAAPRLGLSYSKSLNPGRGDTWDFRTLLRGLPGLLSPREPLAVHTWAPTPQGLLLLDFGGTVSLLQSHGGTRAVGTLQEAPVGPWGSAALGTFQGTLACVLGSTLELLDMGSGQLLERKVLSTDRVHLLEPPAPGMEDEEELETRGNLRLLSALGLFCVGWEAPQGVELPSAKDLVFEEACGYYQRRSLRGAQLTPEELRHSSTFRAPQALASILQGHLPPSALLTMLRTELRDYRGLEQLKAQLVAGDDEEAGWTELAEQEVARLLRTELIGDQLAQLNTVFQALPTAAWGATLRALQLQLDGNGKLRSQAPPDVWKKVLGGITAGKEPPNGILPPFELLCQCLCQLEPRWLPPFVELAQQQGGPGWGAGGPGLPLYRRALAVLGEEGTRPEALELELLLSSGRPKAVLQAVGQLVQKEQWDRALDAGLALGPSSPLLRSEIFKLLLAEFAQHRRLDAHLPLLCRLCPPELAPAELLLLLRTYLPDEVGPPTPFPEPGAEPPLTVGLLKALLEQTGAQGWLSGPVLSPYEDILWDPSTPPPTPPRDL
UniProt Q8IZ21: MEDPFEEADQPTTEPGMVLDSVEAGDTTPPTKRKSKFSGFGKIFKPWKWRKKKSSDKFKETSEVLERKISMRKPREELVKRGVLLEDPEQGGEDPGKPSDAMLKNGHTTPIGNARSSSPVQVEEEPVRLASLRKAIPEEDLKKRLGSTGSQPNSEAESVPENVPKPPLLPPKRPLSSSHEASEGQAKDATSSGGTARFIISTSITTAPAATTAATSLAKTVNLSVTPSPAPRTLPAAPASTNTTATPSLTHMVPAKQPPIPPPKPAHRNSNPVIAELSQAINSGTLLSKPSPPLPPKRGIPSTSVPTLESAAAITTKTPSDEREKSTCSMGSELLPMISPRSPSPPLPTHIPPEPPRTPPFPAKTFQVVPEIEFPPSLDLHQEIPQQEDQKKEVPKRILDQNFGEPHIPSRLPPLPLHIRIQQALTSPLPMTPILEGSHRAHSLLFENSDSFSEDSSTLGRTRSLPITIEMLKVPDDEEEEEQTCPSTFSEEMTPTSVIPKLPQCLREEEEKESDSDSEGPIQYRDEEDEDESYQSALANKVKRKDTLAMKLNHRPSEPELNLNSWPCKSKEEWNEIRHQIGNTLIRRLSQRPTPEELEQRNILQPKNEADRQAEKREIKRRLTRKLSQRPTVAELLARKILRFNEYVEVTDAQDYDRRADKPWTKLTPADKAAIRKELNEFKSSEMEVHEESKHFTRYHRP
UniProt Q7RTV0, whole entry, looked up: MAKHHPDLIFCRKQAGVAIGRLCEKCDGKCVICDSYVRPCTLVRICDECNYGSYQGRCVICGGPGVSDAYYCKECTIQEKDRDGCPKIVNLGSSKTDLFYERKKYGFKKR
UniProt Q86XN8: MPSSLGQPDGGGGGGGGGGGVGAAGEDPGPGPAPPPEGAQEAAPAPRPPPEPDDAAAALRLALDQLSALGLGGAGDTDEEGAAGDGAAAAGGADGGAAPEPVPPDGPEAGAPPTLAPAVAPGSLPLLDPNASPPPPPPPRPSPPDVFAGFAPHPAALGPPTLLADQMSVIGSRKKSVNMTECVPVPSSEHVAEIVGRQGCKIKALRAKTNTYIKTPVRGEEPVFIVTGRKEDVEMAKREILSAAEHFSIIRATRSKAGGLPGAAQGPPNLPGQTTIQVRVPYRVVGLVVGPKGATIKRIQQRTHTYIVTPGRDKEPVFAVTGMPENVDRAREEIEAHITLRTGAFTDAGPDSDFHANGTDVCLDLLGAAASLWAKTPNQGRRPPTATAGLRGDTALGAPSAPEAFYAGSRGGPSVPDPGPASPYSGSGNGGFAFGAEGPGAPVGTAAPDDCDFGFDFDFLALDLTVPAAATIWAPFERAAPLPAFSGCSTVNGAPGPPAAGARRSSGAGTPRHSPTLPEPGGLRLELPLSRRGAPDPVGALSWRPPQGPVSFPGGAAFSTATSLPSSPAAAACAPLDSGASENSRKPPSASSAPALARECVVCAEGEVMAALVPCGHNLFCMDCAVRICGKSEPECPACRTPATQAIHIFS
UniProt Q7Z5K2: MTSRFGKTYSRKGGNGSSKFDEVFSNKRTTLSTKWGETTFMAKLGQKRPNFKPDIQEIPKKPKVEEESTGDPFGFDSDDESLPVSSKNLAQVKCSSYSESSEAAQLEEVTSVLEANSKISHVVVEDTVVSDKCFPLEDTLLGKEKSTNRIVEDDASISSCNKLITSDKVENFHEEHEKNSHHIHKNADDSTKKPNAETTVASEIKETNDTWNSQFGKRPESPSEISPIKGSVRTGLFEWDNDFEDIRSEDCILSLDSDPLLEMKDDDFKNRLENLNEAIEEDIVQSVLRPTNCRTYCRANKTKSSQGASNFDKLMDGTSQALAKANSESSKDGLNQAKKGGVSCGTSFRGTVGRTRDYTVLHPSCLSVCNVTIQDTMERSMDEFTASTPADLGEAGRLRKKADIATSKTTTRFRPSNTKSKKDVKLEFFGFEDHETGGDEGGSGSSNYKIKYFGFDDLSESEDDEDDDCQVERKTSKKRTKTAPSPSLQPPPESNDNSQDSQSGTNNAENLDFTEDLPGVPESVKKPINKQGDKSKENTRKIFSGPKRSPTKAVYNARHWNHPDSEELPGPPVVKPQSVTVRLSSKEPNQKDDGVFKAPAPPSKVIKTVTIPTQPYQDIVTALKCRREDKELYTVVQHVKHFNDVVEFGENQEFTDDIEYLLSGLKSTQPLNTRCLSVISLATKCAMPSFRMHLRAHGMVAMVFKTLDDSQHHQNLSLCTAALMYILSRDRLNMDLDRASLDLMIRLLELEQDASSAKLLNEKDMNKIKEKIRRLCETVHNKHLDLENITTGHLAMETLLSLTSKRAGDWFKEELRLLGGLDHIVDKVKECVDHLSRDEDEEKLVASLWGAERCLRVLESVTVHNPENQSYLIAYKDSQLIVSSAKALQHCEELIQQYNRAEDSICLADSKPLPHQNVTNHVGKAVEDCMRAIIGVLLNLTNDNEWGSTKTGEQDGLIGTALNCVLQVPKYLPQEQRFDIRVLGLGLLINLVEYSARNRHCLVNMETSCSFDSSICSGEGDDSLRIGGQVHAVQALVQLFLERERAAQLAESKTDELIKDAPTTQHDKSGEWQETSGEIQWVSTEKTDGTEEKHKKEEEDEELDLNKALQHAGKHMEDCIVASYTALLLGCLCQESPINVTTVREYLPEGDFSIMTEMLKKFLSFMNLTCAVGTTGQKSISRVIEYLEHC
UniProt Q71F23: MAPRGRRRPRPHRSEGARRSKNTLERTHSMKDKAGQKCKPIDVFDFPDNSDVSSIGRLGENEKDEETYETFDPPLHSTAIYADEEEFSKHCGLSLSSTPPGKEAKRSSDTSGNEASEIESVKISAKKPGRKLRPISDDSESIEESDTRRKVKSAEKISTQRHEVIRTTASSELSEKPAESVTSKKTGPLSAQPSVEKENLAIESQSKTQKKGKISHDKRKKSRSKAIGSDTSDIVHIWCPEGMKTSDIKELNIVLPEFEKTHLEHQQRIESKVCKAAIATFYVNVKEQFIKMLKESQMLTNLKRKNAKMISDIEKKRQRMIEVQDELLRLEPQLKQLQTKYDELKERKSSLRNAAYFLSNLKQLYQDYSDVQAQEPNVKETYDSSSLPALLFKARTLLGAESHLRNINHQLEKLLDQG
UniProt Q7Z4W1: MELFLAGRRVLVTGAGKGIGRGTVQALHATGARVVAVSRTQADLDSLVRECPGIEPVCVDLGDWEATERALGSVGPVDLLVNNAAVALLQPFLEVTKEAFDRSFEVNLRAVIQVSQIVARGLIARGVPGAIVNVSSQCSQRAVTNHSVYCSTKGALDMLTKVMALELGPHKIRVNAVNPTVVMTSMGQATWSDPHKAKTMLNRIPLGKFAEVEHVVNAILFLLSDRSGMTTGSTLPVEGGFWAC

compound: COC(=O)/C=C/c1ccccc1 [methyl cinnamate]; assay: log2 ratio of iodoacetamide-alkyne labeling of the cysteine site, DMSO over compound (competition); higher = stronger covalent engagement of the cysteine by the compound, active = 1 or more; settings: 500 µM; treatment time 1 h; system: HEK293T cell lysate
Method in brief: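 Three replicates, each with duplicate channels, were prepared from HEK293T lysate (2 mg/mL) treated with vehicle or electrophile at 500 µM for 1 h at ambient temperature. Iodoacetamide alkyne was then applied for 1 h, and samples were clicked to sCIP-TMT reagents, pooled, trypsin-digested overnight at 37 °C, enriched on streptavidin, acid-eluted and analysed on Orbitrap Eclipse LC-MS/MS with FAIMS, with FragPipe quantification. The log2 competition ratio per cysteine is the mean control-channel divided by the mean compound-channel reporter intensity. Cysteines quantified in only one replicate were left out.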

log2 ratio of iodoacetamide-alkyne labeling, inactive:
ATG9A C764 (UniProt Q7Z3C6) 0.298, CCAR1 C465 (UniProt Q8IX12) 0.261, UniProt Q86YR5_C616 0.285, METTL3 C500 (UniProt Q86U44) 0.162, CEP97 C396 (UniProt Q8IW35) -0.142, DIS3L2 C312 (UniProt Q8IYB7) 0.147, ERMP1 C43 (UniProt Q7Z2K6) 0.203, HPS6 C408 (UniProt Q86YV9) 0.221, SESTD1 C618 (UniProt Q86VW0) 0.00175, PHACTR4 C328 (UniProt Q8IZ21) 0.184, UniProt Q7RTV0_C75 -0.133, MRPL10 C180 (UniProt Q7Z7H8) -0.0852, MEX3D C362 (UniProt Q86XN8) 0.0241, MEPCE C324 (UniProt Q7L2J0) 0.141, PDSS2 C71 (UniProt Q86YH6) 0.412, UniProt Q7Z5K2_C675 0.157, UniProt Q71F23_C38 0.0968, DCP2 C395 (UniProt Q8IU60) 0.507, CCDC117 C81 (UniProt Q8IWD4) 0.462, GATAD2A C417 (UniProt Q86YP4) 0.0595, DCXR C138 (UniProt Q7Z4W1) 0.0729

log2 ratio of iodoacetamide-alkyne labeling, active:
UniProt Q7L8W6_C88 1.11
